Data as given in patent US20080220471A1, “Vectors and Methods Using Same” (Genentech, Inc., priority 2005, published 2008).
At least one structure is not confirmed: it was looked up by name or label, or the drawing left a doubt.

Experiments:
[1] = test system: pHUSH shGL3 clone B11 tumors; experiment: Tumor volume of pHUSH shGL3 clone B11 tumors at each Dox concentration; type: in vivo, mice; conditions: luciferase-targeting shRNA
Description: FIG. 6: (A) The relative change in mean bioluminescence at each time point and treatment condition (n=5 mice per doxycycline dose). […] In addition to the luciferase expression analysis, tumor volume measurements were recorded for the pHUSH shGL3 clone B11 at each concentration of doxycycline.
To determine whether Dox or shRNA expression influenced tumor growth in vivo, tumor volume measurements were recorded for the tumors at each concentration of Dox.

LOX-IMVI tumors = experiment: LOX-IMVI inducible shRNA subcutaneous xenograft; type: in vivo; conditions: LOX-IMVI/TASK121-shRNA tumors; 0.02, 0.2, 0.5, 1.0 or 2.0 mg/ml doxycycline
Description: Six- to 8-week-old female athymic nu/nu mice or scid-beige mice were purchased from Charles River Laboratories. To assay for BRAF role in subcutaneous tumor models, mice were injected in the right flank with either 3×10^6 human LOX-IMVI or 1×10^7 human A375 TASK121-shRNA containing cell clones in 200 μL phosphate-buffered saline (PBS). When tumors reached a mean volume of 100-150 mm^3 the mice with similarly sized tumors were grouped into treatment cohorts. Mice received 5% sucrose only or 5% sucrose plus 1-2 mg/ml doxycycline for control and knockdown cohorts, respectively. All water bottles were changed 3 times per week. Tumors were measured with calipers and mice weighed twice per week. Mice whose tumors reach 2000 mm^3 were euthanized. At the end of the dosing study, or as indicated, appropriate tumor samples were taken. Each treatment group consisted of 7-10 mice and results are presented as mean tumor volume ±standard deviation (FIGS. 10C-E).

**Q.** For `C[C@H]1c2cccc(O)c2C(=O)C2=C(O)[C@]3(O)C(=O)C(C(N)=O)=C(O)[C@@H](N(C)C)[C@@H]3[C@@H](O)[C@@H]21` [Dox, 1-dimethylamino-2,4-a,5,7,12-pentahydroxy-11-methyl-4,6-dioxo-1,4a,11,11a,12,12a-hexahydrotetracene-3-carboxamide], which “influence on tumor growth in vivo (tumor volume)” value [1] is on record?
**A.** did not influence tumor growth in vivo

**Q.** What about the “tumor growth, dose response” value (LOX-IMVI tumors) of the same molecule?
**A.** stasis or regression
